From patent US20260200997A1, “AFFINITY AGENTS” (Repligen Corporation, priority 2022, published 2026) come the findings set out here.

The chains behind the UniProt entries cited, without tags or fusion partners. Where a name states a change or a piece, a line headed by the entry shows the natural chain unless it says otherwise.
UniProt P00738: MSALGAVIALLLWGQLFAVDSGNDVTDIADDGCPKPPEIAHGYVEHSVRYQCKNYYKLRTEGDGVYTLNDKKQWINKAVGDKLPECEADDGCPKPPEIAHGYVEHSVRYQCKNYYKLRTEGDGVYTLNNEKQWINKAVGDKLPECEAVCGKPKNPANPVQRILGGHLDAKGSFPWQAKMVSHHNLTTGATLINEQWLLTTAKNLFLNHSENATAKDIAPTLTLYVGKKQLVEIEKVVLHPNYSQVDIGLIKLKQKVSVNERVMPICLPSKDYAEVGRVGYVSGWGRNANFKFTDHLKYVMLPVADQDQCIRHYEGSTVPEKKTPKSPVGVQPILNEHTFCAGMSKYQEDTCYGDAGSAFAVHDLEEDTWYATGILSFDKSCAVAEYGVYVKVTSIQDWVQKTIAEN

B1: SEQ ID NO. 88 (designed binder)
ligand: MVDAKFDKELEEARAEIERLPNLTEHQRRYFIFALRHDPSHSAHLLAAAKRHNDDQAPKAAAHHHHHHC
B2: SEQ ID NO. 96 (designed binder)
ligand: MVDAKFDKELEEARAEIERLPNLTEHQRRYFIYALRHDPSQSALLLAVAKRHNDHQAPKAAAHHHHHHC
B3: SEQ ID NO. 75 (designed binder)
ligand: MVDAKFDKELEEARAEIERLPNLTEQQRRNLIHALRQDPSDSAALLAIAKAWNDRQAPKAAAHHHHHHC
B4: SEQ ID NO. 81 (designed binder)
ligand: MVDAKFDKELEEARAEIERLPNLTEQQRRNLIHALRQDPSDSASLLAIAKAWNDRQAPKAAAHHHHHHC
B5: SEQ ID NO. 76 (designed binder)
ligand: MVDAKFDKELEEARAEIERLTNLTEQQRRNFIHALRQDPSDSAALLAIAKAWNDRQAPKAAAHHHHHHC
B6: SEQ ID NO. 83 (designed binder)
ligand: MVDAKFDKELEEARAEIGRLPDLTEQQRRNFIHTLRQDPSGSAALLAIAKAWNDRQAPKAAAHHHHHHC
B7: SEQ ID NO. 85 (designed binder)
ligand: MVDAKFDKELEEARAEIERLPNLTEHQRRHFILALRHDPSDSAALLAIAKAWNDRQAPKAAAHHHHHHC
B8: SEQ ID NO. 91 (designed binder)
ligand: MVDAKFDKELEEARAEIERLPNLTEHQRRHFIHALRHDPSDSAALLAIAKAWNDRQAPKAAAHHHHHHC
B9: SEQ ID NO. 95 (designed binder)
ligand: MVDAKFDKELEEARAEIERLPNLTEHQRRHFIYALRHDPSDSAALLAIAKAWNDRLAPKAAAHHHHHHC
B10: SEQ ID NO. 87 (designed binder)
ligand: MVDAKFDKELEEARAEIERLPNLTEQQRRNFIHALRQDPSDSAALLAIAKAWNDRQAPKAAAHHHHHHC
B11: SEQ ID NO. 79 (designed binder)
ligand: MVDAKFDKELEVARAEIERLPNLTEQQRRNLIHALRQDPSDSAALLAIAKAWNDRQAPKAAAHHHHHHC
B12: SEQ ID NO. 78 (designed binder)
ligand: MVDAKFDKELEEARAETERLPNLTEQQRRNFIHALRQDPSDSAALLAIAKAWNDRQAPKAAAHHHHHHC
B13: SEQ ID NO. 77 (designed binder)
ligand: MVDAKFDKELEEARAEIGRLPDLTEQQRRNFTHTLRQDPSGSAALLAIAKAWNDRQAPKAAAHHHHHHC
B14: SEQ ID NO. 89 (designed binder)
ligand: MVDAKFDKELEEARAEIERLPNLTEHQRRHFIHALRQDPSDSAALLAIAKAWNDRQAPKAAAHHHHHHC
B15: SEQ ID NO. 94 (designed binder)
ligand: MVDAKFDKELEEARAEIERLPNLTEQQRRNFIHALRRDPSDSAALLAIAKAWNDRQAPKAAAHHHHHHC
B16: SEQ ID NO. 90 (designed binder)
ligand: MVDAKFDKELEEARAEIERLPNLTEQQRRHFIHALRHDPSDSAALLAITKAWNDRQAPKAAAHHHHHHC
B17: SEQ ID NO. 93 (designed binder)
ligand: MVDAKFDKELEEARAEIERLPNLTEQQRRSFIHALRQDPSDSAALLAIAKAWNDRQAPKAAAHHHHHHC
B18: SEQ ID NO. 82 (designed binder)
ligand: MVDAKFDKELEEARAEIERLPNLTEQQRRNFIHALRQDPSDSAAQLAIAKAWNDRQAPKAAAHHHHHHC
B19: SEQ ID NO. 92 (designed binder)
ligand: MVDAKFDKELEEARAEIERLPNLTEHQRRHFILALRQDPSDSAALLAIAKAWNDRQAPKAAAHHHHHHC
B20: SEQ ID NO. 84 (designed binder)
ligand: MVDAKFDKELEEARAEIERLPNLTEQQRRNFIHALRQDLPDSAALLAIAKAWNDRQAPKAAAHHHHHHC
B21: SEQ ID NO. 80 (designed binder)
ligand: MVDAKFDKELEEARAEIERLPNLTEQQRRNFIHALRQDPSDSAALLAIAKAWSDRQAPKAAAHHHHHHC
B22: SEQ ID NO. 86 (designed binder)
ligand: MVDAKFDKELEEARAEIERLPNLTEHQRRHFILALRDDPSDSAALLAIAKAWNDRQAPKAAAHHHHHHC

Results are given in words; binding and its absence hold for the method and conditions named. Some entries that bind do so weakly or less than the wild type.

The assay concerns the target Haptoglobin protein (UniProt P00738). Kind of assay: equilibrium batch binding to ligand-conjugated resin, 1.5 mg/mL haptoglobin, 60 min, A280 of unbound.
With B1, the binding result is “binds”. Take B2: the binding entry is recorded as “binds”. Consider B3, for which the binding entry is recorded as “binds”.

On to B4, for which the binding entry is “binds”. With B5, the binding result was “binds”. B6: the binding result was “binds”. Consider B7, for which the binding entry is “binds”.

With B8, the binding result is recorded as “binds”. The value for B9 was “binds”.

Consider B10, for which the binding result is recorded as “binds”.

With B11, the binding result is reported as “binds”.

Regarding B12, the binding entry was “binds”. In the case of B13, the binding result is “binds”. For B14, the binding result is given as “binds”. On to B15, for which the binding result is recorded as “binds”.

With B16, the binding entry is recorded as “binds”. B17: the binding entry is “binds”.

As for B18, the binding result is listed as “binds”.

For the molecule B19, the binding entry was “binds”.

For B20, the binding result was “binds”. Take B21: the binding entry is listed as “binds”. For the molecule B22, the binding result is recorded as “binds”.
